Test results taken from patent US20190100563A1 (UNIVERSITY COURT OF THE UNIVERSITY OF EDINBURGH, published 2019).
These are yes or no findings as the source states them, for the method shown. Some results given as binding are weak or reduced against the parent protein; the word gives no strength. For some of these results: Sequences can lack the tags named with a protein.

Protein sequences, listed by entry. Tags and fused reporters are not part of them. Lines headed by an entry give the natural chain unless they say otherwise; changes in a name come on top.
UniProt P08603: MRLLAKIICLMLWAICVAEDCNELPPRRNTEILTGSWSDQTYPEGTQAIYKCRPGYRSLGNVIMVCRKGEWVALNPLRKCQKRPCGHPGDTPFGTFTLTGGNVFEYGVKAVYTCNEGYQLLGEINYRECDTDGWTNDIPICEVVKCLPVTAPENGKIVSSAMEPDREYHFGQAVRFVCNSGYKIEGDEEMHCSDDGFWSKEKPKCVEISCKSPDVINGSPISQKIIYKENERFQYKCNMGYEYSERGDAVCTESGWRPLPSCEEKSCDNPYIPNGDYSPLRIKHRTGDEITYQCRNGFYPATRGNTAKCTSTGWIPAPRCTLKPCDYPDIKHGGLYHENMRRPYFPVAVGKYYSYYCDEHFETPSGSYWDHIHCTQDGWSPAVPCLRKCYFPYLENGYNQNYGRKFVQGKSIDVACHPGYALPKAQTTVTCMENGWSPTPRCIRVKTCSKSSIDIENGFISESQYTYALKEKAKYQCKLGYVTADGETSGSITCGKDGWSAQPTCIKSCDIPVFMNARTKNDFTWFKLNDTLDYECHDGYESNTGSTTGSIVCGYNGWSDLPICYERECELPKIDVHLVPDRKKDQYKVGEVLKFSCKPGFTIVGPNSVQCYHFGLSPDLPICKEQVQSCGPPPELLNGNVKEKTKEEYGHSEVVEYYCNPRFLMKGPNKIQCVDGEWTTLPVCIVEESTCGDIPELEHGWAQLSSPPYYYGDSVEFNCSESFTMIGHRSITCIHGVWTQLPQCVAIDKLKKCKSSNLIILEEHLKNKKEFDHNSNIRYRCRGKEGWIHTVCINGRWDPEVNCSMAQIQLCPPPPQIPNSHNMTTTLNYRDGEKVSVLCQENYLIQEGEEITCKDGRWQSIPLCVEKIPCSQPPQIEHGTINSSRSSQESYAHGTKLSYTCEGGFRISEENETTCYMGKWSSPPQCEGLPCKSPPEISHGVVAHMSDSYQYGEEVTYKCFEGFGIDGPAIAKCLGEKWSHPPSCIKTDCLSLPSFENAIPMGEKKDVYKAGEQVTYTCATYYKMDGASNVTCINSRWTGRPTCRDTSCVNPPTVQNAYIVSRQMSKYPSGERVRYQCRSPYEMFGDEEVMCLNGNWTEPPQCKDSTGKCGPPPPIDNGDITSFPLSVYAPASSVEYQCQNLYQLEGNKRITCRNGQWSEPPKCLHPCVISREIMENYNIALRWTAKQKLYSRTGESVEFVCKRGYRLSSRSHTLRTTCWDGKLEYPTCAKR

B1: PspCN (cleaved, PspC residues 37-140, S. pneumoniae strain D39) (other)
chain: ATENEGSTQAATSSNMAKTEHRKAAKQVVDEYIEKMLREIQLDRRKHTQNVALNIKLSAIKTKYLRELNVLEEKSKDELPSEIKAKLDAAFEKFKKDTLKPGEK
B2: sPspCN (N-terminally hexaHis-SUMO-tagged PspC residues 37-140, S. pneumoniae strain D39) (other)
chain: B1 chain
notes: not shown: N-terminal hexaHis-SUMO tag from the pE-SUMOpro Kan vector

What was measured:
[1] = molecular target: CFH 8-9 (recombinant fragment, CCPs 8-9 of human CFH) (human) (UniProt P08603); assay: 1H,15N HSQC NMR
[2] = molecular target: CFH 8-9 (recombinant fragment, CCPs 8-9 of human CFH) (human) (UniProt P08603); assay: 1H,15N HSQC NMR of the labelled protein without and with the unlabelled partner
[3] = molecular target: CFH 19-20 (recombinant fragment, CCPs 19-20 of human CFH) (human) (UniProt P08603); assay: SPR, sPspCN on NTA/Ni2+ chip
[4] = molecular target: CFH 8-9 (recombinant fragment, CCPs 8-9 of human CFH) (human) (UniProt P08603); assay: SPR, sPspCN on NTA/Ni2+ chip

Binder | binding [1] | binding [2] | binding [3] | binding [4]
B1 | binds | binds | – | –
B2 | – | – | binds | binds
